From article PMC3708934
No constants are given. Whether binding was seen depends on the method and setting. Binding seen in cells or lysates may run through a third protein. Some results given as binding are weak or reduced against the parent protein; the word gives no strength.

The chains behind the UniProt entries cited, without tags or fusion partners. Where a name states a change or a piece, a line headed by the entry shows the natural chain unless it says otherwise. A line that says so, or that is headed by a name, gives the form on record, which may keep a tag or linker.
UniProt Q9Y3Z3: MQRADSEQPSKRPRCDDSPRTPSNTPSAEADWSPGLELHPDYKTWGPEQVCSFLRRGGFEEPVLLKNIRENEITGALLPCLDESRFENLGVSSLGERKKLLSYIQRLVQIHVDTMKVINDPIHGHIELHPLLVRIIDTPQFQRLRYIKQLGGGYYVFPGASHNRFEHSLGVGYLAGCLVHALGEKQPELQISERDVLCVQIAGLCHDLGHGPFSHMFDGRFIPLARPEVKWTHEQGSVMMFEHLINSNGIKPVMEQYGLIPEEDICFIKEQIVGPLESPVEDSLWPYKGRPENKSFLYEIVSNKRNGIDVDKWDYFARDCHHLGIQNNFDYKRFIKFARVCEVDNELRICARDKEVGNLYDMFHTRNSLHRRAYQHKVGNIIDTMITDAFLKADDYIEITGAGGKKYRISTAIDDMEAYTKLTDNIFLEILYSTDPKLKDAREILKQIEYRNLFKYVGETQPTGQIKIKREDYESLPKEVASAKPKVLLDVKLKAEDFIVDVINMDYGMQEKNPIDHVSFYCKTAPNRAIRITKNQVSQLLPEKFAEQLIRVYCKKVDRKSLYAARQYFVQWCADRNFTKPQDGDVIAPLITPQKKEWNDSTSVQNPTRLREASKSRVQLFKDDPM
SAMHD1 Δ2–109-HA (Q9Y3Z3, form named): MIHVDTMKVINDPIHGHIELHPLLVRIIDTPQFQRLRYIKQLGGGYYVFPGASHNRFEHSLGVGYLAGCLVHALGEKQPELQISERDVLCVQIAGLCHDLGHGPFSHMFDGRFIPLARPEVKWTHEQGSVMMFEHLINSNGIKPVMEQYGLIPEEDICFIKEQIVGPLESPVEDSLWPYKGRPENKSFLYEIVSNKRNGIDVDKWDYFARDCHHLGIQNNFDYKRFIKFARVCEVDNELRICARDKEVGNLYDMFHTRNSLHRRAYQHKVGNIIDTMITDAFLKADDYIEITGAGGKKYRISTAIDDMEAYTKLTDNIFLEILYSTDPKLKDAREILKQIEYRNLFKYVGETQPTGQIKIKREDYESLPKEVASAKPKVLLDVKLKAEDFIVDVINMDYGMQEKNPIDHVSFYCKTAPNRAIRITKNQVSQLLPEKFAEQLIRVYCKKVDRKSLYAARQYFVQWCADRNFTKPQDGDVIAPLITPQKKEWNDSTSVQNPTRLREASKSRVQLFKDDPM
UniProt Q14974: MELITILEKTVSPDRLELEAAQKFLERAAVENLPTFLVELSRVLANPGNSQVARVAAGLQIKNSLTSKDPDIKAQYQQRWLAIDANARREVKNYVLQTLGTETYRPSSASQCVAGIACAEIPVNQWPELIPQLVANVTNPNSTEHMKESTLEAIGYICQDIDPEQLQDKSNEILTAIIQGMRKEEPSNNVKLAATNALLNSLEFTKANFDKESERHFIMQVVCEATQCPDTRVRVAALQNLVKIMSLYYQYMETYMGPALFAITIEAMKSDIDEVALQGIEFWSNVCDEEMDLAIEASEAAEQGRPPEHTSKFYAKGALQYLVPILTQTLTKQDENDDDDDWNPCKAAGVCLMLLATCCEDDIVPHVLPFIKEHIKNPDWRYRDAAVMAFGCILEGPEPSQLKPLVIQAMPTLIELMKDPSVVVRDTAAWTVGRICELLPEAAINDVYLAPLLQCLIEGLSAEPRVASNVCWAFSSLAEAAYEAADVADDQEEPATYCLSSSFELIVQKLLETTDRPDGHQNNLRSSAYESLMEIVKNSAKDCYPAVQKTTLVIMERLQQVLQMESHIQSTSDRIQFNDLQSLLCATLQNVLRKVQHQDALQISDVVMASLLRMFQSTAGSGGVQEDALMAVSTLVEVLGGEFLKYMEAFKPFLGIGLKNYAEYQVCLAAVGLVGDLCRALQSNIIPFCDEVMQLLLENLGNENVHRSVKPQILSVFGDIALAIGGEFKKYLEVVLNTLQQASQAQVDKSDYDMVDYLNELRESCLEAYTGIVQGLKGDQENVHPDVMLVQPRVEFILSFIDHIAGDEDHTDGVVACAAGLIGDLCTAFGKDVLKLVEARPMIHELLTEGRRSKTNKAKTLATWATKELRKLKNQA

Columns and labels:
Experiment in all cases: co-IP; SAMHD1-HA WT or mutants transfected into HEK293T; lysates 48 h after transfection precipitated with anti-HA affinity matrix; endogenous KPNB1 detected by immunoblot with anti-KPNB1
SAMHD1 Δ2–109-HA (human) = SAMHD1 Δ2–109-HA (human) (UniProt Q9Y3Z3)
SAMHD1 K11A-HA (human) = SAMHD1 K11A-HA (human) (UniProt Q9Y3Z3)
[1] = target: wild-type SAMHD1-HA (sterile alpha motif and HD domain-containing protein-1) (human) (UniProt Q9Y3Z3)

Measured: binding

karyopherin-β1 (KPNB1) (from UniProt Q14974 1-876)
binds: SAMHD1 Δ2–109-HA (human) | SAMHD1 K11A-HA (human) | [1]
